Measurements published in patent WO2016030488A1.
No constants are given. Whether binding was seen depends on the method and setting. Binding can be weak; no strength is given.

Tests used:
[1] = biological target: human KIR3DL2 polypeptide, wild type (allele *002) (human); assay: flow cytometry competition on HUT78 cells
[2] = biological target: human KIR3DL2 polypeptide, wild type (allele *002) (human); assay: binding to cells transfected with wild type KIR3DL2
[3] = biological target: human KIR3DL2 polypeptide, wild type (allele *002) (human); assay: flow cytometry screen on HUT78, COU-L and HEK-293T/KIR3DL2 Domain 0 - eGFP cells

binding [1]: binds | binding [2]: binds | binding [3]: binds
B1: antibody 19H12 (antibody, V domains shown)
VH: QIQLVQSGPELKKPGETVKISCKASGYTFTNFGMNWVKQAPGKGLKWMGWINTYTGEPTYADDFKGRFAFSLETSASTAYLQINNLKNEDMATYFCARNGNFGYYFDYWGQGTTLTVSS
VL: DVLMTQTPLSLPVSLGDQASFSCRSSQNIVHSNGNTYLEWYLQKPGQSPSLLIYKVSNRFSGVPDRFSGSGSGTDFTLKITRVEAEDLGVYYCFQGSHVPFTFGSGTKLEIK
